Laboratory results: patent publication US20250026792A1, “SELF-ASSEMBLING PEPTIDES WITH HYALURONIC ACID BINDING DOMAINS AND METHODS OF USE THEREOF” (Northwestern University, priority 2022, published 2025)
No constants are given. Whether binding was seen depends on the method and setting. Some entries that bind do so weakly or less than the wild type. One block for each binder: values may come before it.

The chains behind the UniProt entries cited, without tags or fusion partners. Where a name states a change or a piece, a line headed by the entry shows the natural chain unless it says otherwise.
UniProt P02454: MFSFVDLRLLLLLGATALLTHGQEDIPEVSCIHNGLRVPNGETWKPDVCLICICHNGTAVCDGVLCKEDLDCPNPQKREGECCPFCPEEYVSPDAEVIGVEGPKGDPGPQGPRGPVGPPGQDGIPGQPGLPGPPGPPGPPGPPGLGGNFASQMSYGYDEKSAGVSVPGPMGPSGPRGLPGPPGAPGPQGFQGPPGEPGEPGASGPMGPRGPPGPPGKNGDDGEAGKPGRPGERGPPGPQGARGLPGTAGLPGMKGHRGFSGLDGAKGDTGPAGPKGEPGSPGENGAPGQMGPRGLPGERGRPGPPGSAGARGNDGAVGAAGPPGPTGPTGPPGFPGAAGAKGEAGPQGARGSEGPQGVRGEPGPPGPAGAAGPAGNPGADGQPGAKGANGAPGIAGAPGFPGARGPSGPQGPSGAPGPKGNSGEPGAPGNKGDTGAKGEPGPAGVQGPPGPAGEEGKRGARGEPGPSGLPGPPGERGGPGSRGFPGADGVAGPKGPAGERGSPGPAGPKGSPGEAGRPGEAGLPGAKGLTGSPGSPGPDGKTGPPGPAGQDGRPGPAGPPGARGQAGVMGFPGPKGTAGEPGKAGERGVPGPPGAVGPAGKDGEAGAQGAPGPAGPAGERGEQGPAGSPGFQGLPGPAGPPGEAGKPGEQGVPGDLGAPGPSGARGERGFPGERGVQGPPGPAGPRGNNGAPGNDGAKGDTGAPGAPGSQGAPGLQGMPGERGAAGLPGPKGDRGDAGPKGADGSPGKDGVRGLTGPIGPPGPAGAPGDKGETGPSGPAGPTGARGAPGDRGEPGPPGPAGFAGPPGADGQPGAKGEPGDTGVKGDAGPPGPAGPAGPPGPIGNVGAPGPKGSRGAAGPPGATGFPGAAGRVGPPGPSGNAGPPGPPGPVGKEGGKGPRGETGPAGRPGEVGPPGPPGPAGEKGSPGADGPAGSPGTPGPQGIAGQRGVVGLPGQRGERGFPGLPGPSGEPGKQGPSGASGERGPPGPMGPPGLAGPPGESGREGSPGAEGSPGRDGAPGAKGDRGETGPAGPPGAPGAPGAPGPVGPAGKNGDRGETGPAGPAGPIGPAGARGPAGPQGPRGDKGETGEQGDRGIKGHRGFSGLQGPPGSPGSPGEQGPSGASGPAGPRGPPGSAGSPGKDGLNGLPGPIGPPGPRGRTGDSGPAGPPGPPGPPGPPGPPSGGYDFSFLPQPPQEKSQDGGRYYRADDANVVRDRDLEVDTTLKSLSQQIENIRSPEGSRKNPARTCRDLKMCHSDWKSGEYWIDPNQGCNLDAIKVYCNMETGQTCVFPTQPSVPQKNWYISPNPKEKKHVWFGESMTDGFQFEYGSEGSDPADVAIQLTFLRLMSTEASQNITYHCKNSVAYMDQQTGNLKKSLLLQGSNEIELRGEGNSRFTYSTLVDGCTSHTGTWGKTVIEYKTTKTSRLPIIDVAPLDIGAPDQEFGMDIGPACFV
UniProt P02463: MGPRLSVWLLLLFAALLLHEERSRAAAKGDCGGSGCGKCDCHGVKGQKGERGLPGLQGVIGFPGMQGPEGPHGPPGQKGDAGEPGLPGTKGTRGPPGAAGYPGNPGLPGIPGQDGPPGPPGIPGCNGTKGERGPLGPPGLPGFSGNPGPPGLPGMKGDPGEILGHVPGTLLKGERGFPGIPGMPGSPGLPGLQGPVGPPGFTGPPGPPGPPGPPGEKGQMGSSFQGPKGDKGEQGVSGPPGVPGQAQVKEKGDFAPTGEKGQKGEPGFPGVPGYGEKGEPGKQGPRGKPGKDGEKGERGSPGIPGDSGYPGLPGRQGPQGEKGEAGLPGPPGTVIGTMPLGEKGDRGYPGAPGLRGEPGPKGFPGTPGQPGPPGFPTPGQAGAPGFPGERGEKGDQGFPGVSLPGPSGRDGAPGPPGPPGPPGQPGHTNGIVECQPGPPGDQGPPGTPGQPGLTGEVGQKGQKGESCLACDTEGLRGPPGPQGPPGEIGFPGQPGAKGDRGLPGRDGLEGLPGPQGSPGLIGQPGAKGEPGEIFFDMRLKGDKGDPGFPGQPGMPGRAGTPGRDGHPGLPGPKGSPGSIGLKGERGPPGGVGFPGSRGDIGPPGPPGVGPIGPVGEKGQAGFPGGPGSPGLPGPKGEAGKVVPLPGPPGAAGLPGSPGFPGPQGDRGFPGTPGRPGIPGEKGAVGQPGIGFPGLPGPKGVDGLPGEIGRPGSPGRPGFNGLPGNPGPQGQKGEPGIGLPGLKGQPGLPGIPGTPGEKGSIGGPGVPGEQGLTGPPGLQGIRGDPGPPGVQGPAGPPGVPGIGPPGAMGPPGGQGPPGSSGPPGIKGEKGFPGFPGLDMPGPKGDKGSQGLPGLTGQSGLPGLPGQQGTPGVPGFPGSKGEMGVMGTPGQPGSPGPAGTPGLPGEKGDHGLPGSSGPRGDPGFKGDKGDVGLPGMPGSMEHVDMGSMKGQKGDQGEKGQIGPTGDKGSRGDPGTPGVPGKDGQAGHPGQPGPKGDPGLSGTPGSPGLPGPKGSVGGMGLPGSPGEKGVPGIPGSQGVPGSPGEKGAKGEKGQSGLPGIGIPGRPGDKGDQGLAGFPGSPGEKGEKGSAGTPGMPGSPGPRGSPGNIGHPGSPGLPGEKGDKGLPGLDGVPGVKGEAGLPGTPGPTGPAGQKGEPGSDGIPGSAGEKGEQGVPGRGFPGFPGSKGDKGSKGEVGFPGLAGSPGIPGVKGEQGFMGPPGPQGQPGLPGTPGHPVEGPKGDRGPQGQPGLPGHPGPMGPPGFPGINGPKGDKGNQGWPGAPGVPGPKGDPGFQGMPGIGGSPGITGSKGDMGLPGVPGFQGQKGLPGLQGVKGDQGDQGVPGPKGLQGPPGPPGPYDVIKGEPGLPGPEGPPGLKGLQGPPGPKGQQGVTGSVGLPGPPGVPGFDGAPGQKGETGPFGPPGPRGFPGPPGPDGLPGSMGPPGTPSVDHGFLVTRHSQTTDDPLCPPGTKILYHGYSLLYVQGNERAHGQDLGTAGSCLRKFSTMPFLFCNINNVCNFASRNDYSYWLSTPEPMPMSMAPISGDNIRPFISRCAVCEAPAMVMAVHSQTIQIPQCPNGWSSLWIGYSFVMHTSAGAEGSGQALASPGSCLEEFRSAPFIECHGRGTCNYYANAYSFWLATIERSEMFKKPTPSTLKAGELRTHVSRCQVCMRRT

Key:
collagen type I (rat) = biological target: T1, collagen type I (rat) (rat, UniProt P02454 152-1207; P02466 86-1125); experiment: plate assay: biotinylated peptide (5.0 mg/ml) on dried ECM coating, streptavidin-488 fluorescence
T1 construct: Coated and dried on 96-well plates at 10 ug/cm2; also called collagen I

collagen type IV (mouse) = biological target: T2, collagen type IV (mouse) (mouse, UniProt P02463 28-1669; P08122 26-1707); experiment: as above
T2 construct: IV (mouse)'; Coated and dried on plates at 10 ug/cm2; also called collagen IV

binding (collagen type I (rat)): binds
B1: Peptide 10K (peptide)
peptide: TKAKIKHSVKLKAKLRIKLVKRI
modifications: N-terminal biotin; free C-terminus

binding (collagen type IV (mouse)): binds | binding (collagen type I (rat)): binds
B2: Peptide 7c (peptide)
peptide: KTKATVKIKNKQKSVNALKQKIVLLSK
modifications: N-terminal biotin; free C-terminus

binding (collagen type IV (mouse)): binds
B3: Peptide BHP4 (peptide)
peptide: TNLRNKYTFLARARANLAVRNKQNIKS
modifications: N-terminal biotin; free C-terminus
